In article PMC12222028:
Changes are numbered by the printed parent chain. Results are given in words; binding and its absence hold for the method and conditions named. In cells and extracts the contact can be indirect. A yes stands for co-enrichment or nearness to the bait. Other partners may have been found. For some assays here: Sequences can lack the tags named with a protein.

By UniProt entry, the sequences of proteins in these tests, tags left out. Residues count along the entry.
UniProt Q9P0T7, residues 21-183: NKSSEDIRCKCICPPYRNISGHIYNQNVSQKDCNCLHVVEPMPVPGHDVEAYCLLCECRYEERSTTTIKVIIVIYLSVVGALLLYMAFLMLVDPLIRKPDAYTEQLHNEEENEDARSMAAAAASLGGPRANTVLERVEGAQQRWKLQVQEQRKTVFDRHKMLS

T1: WT HA–TMEM230 (human) (UniProt Q96A57)
T1 sequence: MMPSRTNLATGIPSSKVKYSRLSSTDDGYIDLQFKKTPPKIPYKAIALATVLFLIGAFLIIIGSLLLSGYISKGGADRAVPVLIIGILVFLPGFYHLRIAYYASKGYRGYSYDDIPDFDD

T2: HA-TMEM230(Y29C) (human) (UniProt Q96A57)
T2 sequence: T1 sequence with Y29C

T3: Wild-type (WT) TMEM230 (human (endogenous in H9-derived iNeurons)) (UniProt Q96A57)
T3 sequence: T1 sequence

B1: ATP8A1 (protein, UniProt Q9Y2Q0 1-1164)
chain: MPTMRRTVSEIRSRAEGYEKTDDVSEKTSLADQEEVRTIFINQPQLTKFCNNHVSTAKYNIITFLPRFLYSQFRRAANSFFLFIALLQQIPDVSPTGRYTTLVPLLFILAVAAIKEIIEDIKRHKADNAVNKKQTQVLRNGAWEIVHWEKVAVGEIVKVTNGEHLPADLISLSSSEPQAMCYIETSNLDGETNLKIRQGLPATSDIKDVDSLMRISGRIECESPNRHLYDFVGNIRLDGHGTVPLGADQILLRGAQLRNTQWVHGIVVYTGHDTKLMQNSTSPPLKLSNVERITNVQILILFCILIAMSLVCSVGSAIWNRRHSGKDWYLNLNYGGASNFGLNFLTFIILFNNLIPISLLVTLEVVKFTQAYFINWDLDMHYEPTDTAAMARTSNLNEELGQVKYIFSDKTGTLTCNVMQFKKCTIAGVAYGHVPEPEDYGCSPDEWQNSQFGDEKTFSDSSLLENLQNNHPTAPIICEFLTMMAVCHTAVPEREGDKIIYQAASPDEGALVRAAKQLNFVFTGRTPDSVIIDSLGQEERYELLNVLEFTSARKRMSVIVRTPSGKLRLYCKGADTVIYDRLAETSKYKEITLKHLEQFATEGLRTLCFAVAEISESDFQEWRAVYQRASTSVQNRLLKLEESYELIEKNLQLLGATAIEDKLQDQVPETIETLMKADIKIWILTGDKQETAINIGHSCKLLKKNMGMIVINEGSLDGTRETLSRHCTTLGDALRKENDFALIIDGKTLKYALTFGVRQYFLDLALSCKAVICCRVSPLQKSEVVEMVKKQVKVVTLAIGDGANDVSMIQTAHVGVGISGNEGLQAANSSDYSIAQFKYLKNLLMIHGAWNYNRVSKCILYCFYKNIVLYIIEIWFAFVNGFSGQILFERWCIGLYNVMFTAMPPLTLGIFERSCRKENMLKYPELYKTSQNALDFNTKVFWVHCLNGLFHSVILFWFPLKALQYGTAFGNGKTSDYLLLGNFVYTFVVITVCLKAGLETSYWTWFSHIAIWGSIALWVVFFGIYSSLWPAIPMAPDMSGEAAMLFSSGVFWMGLLFIPVASLLLDVVYKVIKRTAFKTLVDEVQELEAKSQDPGAVVLGKSLTERAQLLKNVFKKNHVNLYRSESLQQNLLHGYAFSQDENGIVSQSEVIRAYDTTKQRPDEW
B2: ATP8A2 (protein, UniProt Q9NTI2 1-1188)
chain: MLNGAGLDKALKMSLPRRSRIRSSVGPVRSSLGYKKAEDEMSRATSVGDQLEAPARTIYLNQPHLNKFRDNQISTAKYSVLTFLPRFLYEQIRRAANAFFLFIALLQQIPDVSPTGRYTTLVPLIIILTIAGIKEIVEDFKRHKADNAVNKKKTIVLRNGMWHTIMWKEVAVGDIVKVVNGQYLPADVVLLSSSEPQAMCYVETANLDGETNLKIRQGLSHTADMQTREVLMKLSGTIECEGPNRHLYDFTGNLNLDGKSLVALGPDQILLRGTQLRNTQWVFGIVVYTGHDTKLMQNSTKAPLKRSNVEKVTNVQILVLFGILLVMALVSSAGALYWNRSHGEKNWYIKKMDTTSDNFGYNLLTFIILYNNLIPISLLVTLEVVKYTQALFINWDTDMYYIGNDTPAMARTSNLNEELGQVKYLFSDKTGTLTCNIMNFKKCSIAGVTYGHFPELAREPSSDDFCRMPPPCSDSCDFDDPRLLKNIEDRHPTAPCIQEFLTLLAVCHTVVPEKDGDNIIYQASSPDEAALVKGAKKLGFVFTARTPFSVIIEAMGQEQTFGILNVLEFSSDRKRMSVIVRTPSGRLRLYCKGADNVIFERLSKDSKYMEETLCHLEYFATEGLRTLCVAYADLSENEYEEWLKVYQEASTILKDRAQRLEECYEIIEKNLLLLGATAIEDRLQAGVPETIATLLKAEIKIWVLTGDKQETAINIGYSCRLVSQNMALILLKEDSLDATRAAITQHCTDLGNLLGKENDVALIIDGHTLKYALSFEVRRSFLDLALSCKAVICCRVSPLQKSEIVDVVKKRVKAITLAIGDGANDVGMIQTAHVGVGISGNEGMQATNNSDYAIAQFSYLEKLLLVHGAWSYNRVTKCILYCFYKNVVLYIIELWFAFVNGFSGQILFERWCIGLYNVIFTALPPFTLGIFERSCTQESMLRFPQLYKITQNGEGFNTKVFWGHCINALVHSLILFWFPMKALEHDTVLTSGHATDYLFVGNIVYTYVVVTVCLKAGLETTAWTKFSHLAVWGSMLTWLVFFGIYSTIWPTIPIAPDMRGQATMVLSSAHFWLGLFLVPTACLIEDVAWRAAKHTCKKTLLEEVQELETKSRVLGKAVLRDSNGKRLNERDRLIKRLGRKTPPTLFRGSSLQQGVPHGYAFSQEEHGAVSQEEVIRAYDTTKKKSRKK
B3: TMEM30A (protein, UniProt Q9NV96 1-361)
chain: MAMNYNAKDEVDGGPPCAPGGTAKTRRPDNTAFKQQRLPAWQPILTAGTVLPIFFIIGLIFIPIGIGIFVTSNNIREIEIDYTGTEPSSPCNKCLSPDVTPCFCTINFTLEKSFEGNVFMYYGLSNFYQNHRRYVKSRDDSQLNGDSSALLNPSKECEPYRRNEDKPIAPCGAIANSMFNDTLELFLIGNDSYPIPIALKKKGIAWWTDKNVKFRNPPGGDNLEERFKGTTKPVNWLKPVYMLDSDPDNNGFINEDFIVWMRTAALPTFRKLYRLIERKSDLHPTLPAGRYSLNVTYNYPVHYFDGRKRMILSTISWMGGKNPFLGIAYIAVGSISFLLGVVLLVINHKYRNSSNTADITI
B4: ATP11B (protein, UniProt Q9Y2G3 1-1177)
chain: MWRWIRQQLGFDPPHQSDTRTIYVANRFPQNGLYTPQKFIDNRIISSKYTVWNFVPKNLFEQFRRVANFYFLIIFLVQLMIDTPTSPVTSGLPLFFVITVTAIKQGYEDWLRHNSDNEVNGAPVYVVRSGGLVKTRSKNIRVGDIVRIAKDEIFPADLVLLSSDRLDGSCHVTTASLDGETNLKTHVAVPETALLQTVANLDTLVAVIECQQPEADLYRFMGRMIITQQMEEIVRPLGPESLLLRGARLKNTKEIFGVAVYTGMETKMALNYKSKSQKRSAVEKSMNTFLIIYLVILISEAVISTILKYTWQAEEKWDEPWYNQKTEHQRNSSKILRFISDFLAFLVLYNFIIPISLYVTVEMQKFLGSFFIGWDLDLYHEESDQKAQVNTSDLNEELGQVEYVFTDKTGTLTENEMQFRECSINGMKYQEINGRLVPEGPTPDSSEGNLSYLSSLSHLNNLSHLTTSSSFRTSPENETELIKEHDLFFKAVSLCHTVQISNVQTDCTGDGPWQSNLAPSQLEYYASSPDEKALVEAAARIGIVFIGNSEETMEVKTLGKLERYKLLHILEFDSDRRRMSVIVQAPSGEKLLFAKGAESSILPKCIGGEIEKTRIHVDEFALKGLRTLCIAYRKFTSKEYEEIDKRIFEARTALQQREEKLAAVFQFIEKDLILLGATAVEDRLQDKVRETIEALRMAGIKVWVLTGDKHETAVSVSLSCGHFHRTMNILELINQKSDSECAEQLRQLARRITEDHVIQHGLVVDGTSLSLALREHEKLFMEVCRNCSAVLCCRMAPLQKAKVIRLIKISPEKPITLAVGDGANDVSMIQEAHVGIGIMGKEGRQAARNSDYAIARFKFLSKLLFVHGHFYYIRIATLVQYFFYKNVCFITPQFLYQFYCLFSQQTLYDSVYLTLYNICFTSLPILIYSLLEQHVDPHVLQNKPTLYRDISKNRLLSIKTFLYWTILGFSHAFIFFFGSYLLIGKDTSLLGNGQMFGNWTFGTLVFTVMVITVTVKMALETHFWTWINHLVTWGSIIFYFVFSLFYGGILWPFLGSQNMYFVFIQLLSSGSAWFAIILMVVTCLFLDIIKKVFDRHLHPTSTEKAQLTETNAGIKCLDSMCCFPEGEAACASVGRMLERVIGRCSPTHISRSWSASDPFYTNDRSILTLSTMDSSTC
B5: CLCN5 (protein, UniProt P51795 1-816)
chain: MAMWQGAMDNRGFQQGSFSSFQNSSSDEDLMDIPATAMDFSMRDDVPPLDREVGEDKSYNGGGIGSSNRIMDFLEEPIPGVGTYDDFNTIDWVREKSRDRDRHREITNKSKESTWALIHSVSDAFSGWLLMLLIGLLSGSLAGLIDISAHWMTDLKEGICTGGFWFNHEHCCWNSEHVTFEERDKCPEWNSWSQLIISTDEGAFAYIVNYFMYVLWALLFAFLAVSLVKVFAPYACGSGIPEIKTILSGFIIRGYLGKWTLVIKTITLVLAVSSGLSLGKEGPLVHVACCCGNILCHCFNKYRKNEAKRREVLSAAAAAGVSVAFGAPIGGVLFSLEEVSYYFPLKTLWRSFFAALVAAFTLRSINPFGNSRLVLFYVEFHTPWHLFELVPFILLGIFGGLWGALFIRTNIAWCRKRKTTQLGKYPVIEVLVVTAITAILAFPNEYTRMSTSELISELFNDCGLLDSSKLCDYENRFNTSKGGELPDRPAGVGVYSAMWQLALTLILKIVITIFTFGMKIPSGLFIPSMAVGAIAGRLLGVGMEQLAYYHQEWTVFNSWCSQGADCITPGLYAMVGAAACLGGVTRMTVSLVVIMFELTGGLEYIVPLMAAAMTSKWVADALGREGIYDAHIRLNGYPFLEAKEEFAHKTLAMDVMKPRRNDPLLTVLTQDSMTVEDVETIISETTYSGFPVVVSRESQRLVGFVLRRDLIISIENARKKQDGVVSTSIIYFTEHSPPLPPYTPPTLKLRNILDLSPFTVTDLTPMEIVVDIFRKLGLRQCLVTHNGRLLGIITKKDVLKHIAQMANQDPDSILFN
B6: TMEM9B (protein, UniProt Q9NQ34 34-198)
chain: AKNFEDVRCKCICPPYKENSGHIYNKNISQKDCDCLHVVEPMPVRGPDVEAYCLRCECKYEERSSVTIKVTIIIYLSILGLLLLYMVYLTLVEPILKRRLFGHAQLIQSDDDIGDHQPFANAHDVLARSRSRANVLNKVEYAQQRWKLQVQEQRKSVFDRHVVLS

Target: T1, WT HA–TMEM230 (human)
Assay: affinity purification with mass spectrometry; TMEM230 IPs from H9 TMEM230-/- iNeurons with or without lentiviral expression of WT and variant HA-TMEM230; 0.5% DDM extract; TMT-MS

binding | Binder
binds | B1
binds | B2
binds | B3
binds | B4

Target: T2, HA-TMEM230(Y29C) (human)
Assay: as above

binding | Binder
binds | B1
binds | B2
binds | B3
binds | B4

Target: TMEM9–HA (human) (UniProt Q9P0T7)
Assay: affinity purification with mass spectrometry; anti-HA IPs from TMEM9-/- iNeurons (day 21) with or without lentiviral expression of TMEM9-HA; 0.5% DDM extract; TMT-MS

binding | Binder
binds | B5
binds | B6

Target: T3, Wild-type (WT) TMEM230 (human (endogenous in H9-derived iNeurons))
Assay: affinity purification with mass spectrometry; anti-TMEM230 immunocomplexes from WT H9 iNeurons against H9 TMEM230-/- iNeurons; 0.5% DDM extract; TMT-MS

binding | Binder
binds | B1
binds | B2
binds | B3
binds | B4
